Laboratory results as given in patent US20160113911A1, “METHODS AND COMPOSITIONS FOR THE TREATMENT OF CANCER” (THE GENERAL HOSPITAL CORPORATION, priority 2013, published 2016).

B1: 2A-G278S: KDM4A mutation (protein)
chain: MASESETLNPSARIMTFYPTMEEFRNFSRYIAYIESQGAHRAGLAKVVPPKEWKPRASYDDIDDLVIPAPIQQLVTGQSGLFTQYNIQKKAMTVREFRKIANSDKYCTPRYSEFEELERKYWKNLTFNPPIYGADVNGTLYEKHVDEWNIGRLRTILDLVEKESGITIEGVNTPYLYFGMWKTSFAWHTEDMDLYSINYLHFGEPKSWYSVPPEHGKRLERLAKGFFPGSAQSCEAFLRHKMTLISPLMLKKYGIPFDKVTQEAGEFMITFPYGYHASFNHGFNCAESTNFATRRWIEYGKQAVLCSCRKDMVKISMDVFVRKFQPERYKLWKAGKDNTVIDHTLPTPEAAEFLKESELPPRAGNEEECPEEDMEGVEDGEEGDLKTSLAKHRIGTKRHRVCLEIPQEVSQSELFPKEDLSSEQYEMTECPAALAPVRPTHSSVRQVEDGLTFPDYSDSTEVKFEELKNVKLEEEDEEEEQAAAALDLSVNPASVGGRLVFSGSKKKSSSSLGSGSSRDSISSDSETSEPLSCRAQGQTGVLTVHSYAKGDGRVTVGEPCTRKKGSAARSFSERELAEVADEYMFSLEENKKSKGRRQPLSKLPRHHPLVLQECVSDDETSEQLTPEEEAEETEAWAKPLSQLWQNRPPNFEAEKEFNETMAQQAPHCAVCMIFQTYHQVEFGGFNQNCGNASDLAPQKQRTKPLIPEMCFTSTGCSTDINLSTPYLEEDGTSILVSCKKCSVRVHASCYGVPPAKASEDWMCSRCSANALEEDCCLCSLRGGALQRANDDRWVHVSCAVAILEARFVNIAERSPVDVSKIPLPRFKLKCIFCKKRRKRTAGCCVQCSHGRCPTAFHVSCAQAAGVMMQPDDWPFVVFITCFRHKIPNLERAKGALQSITAGQKVISKHKNGRFYQCEVVRLTTETFYEVNFDDGSFSDNLYPEDIVSQDCLQFGPPAEGEVVQVRWTDGQVYGAKFVASHPIQMYQVEFEDGSQLVVKRDDVYTLDEELPKRVKSRLSVASDMRFNEIFTEKEVKQEKKRQRVINSRYREDYIEPALYRAIME
B2: 2A-T289I: KDM4A mutation (protein)
chain: B1 chain with S278G, T289I
B3: 2A-V319M: KDM4A mutation (protein)
chain: B1 chain with S278G, V319M
B4: 2A-P326T: KDM4A mutation (protein)
chain: B1 chain with S278G, P326T
B5: 2A-P348L: KDM4A mutation (protein)
chain: B1 chain with S278G, P348L
B6: 2A-E368K: KDM4A mutation (protein)
chain: B1 chain with S278G, E368K
B7: 2A-G376V: KDM4A mutation (protein)
chain: B1 chain with S278G, G376V
B8: 2A-R400Q: KDM4A mutation (protein)
chain: B1 chain with S278G, R400Q
B9: 2A-E426K: KDM4A mutation (protein)
chain: B1 chain with S278G, E426K
B10: 2A-V490M: KDM4A mutation (protein)
chain: B1 chain with S278G, V490M
B11: 2A-R498H: KDM4A mutation (protein)
chain: B1 chain with S278G, R498H

Experiment: Subcellular localization of KDM4 variants (immunofluorescence)
Format: cell-based
Settings: KDM4A mutations; % nuclear

For B1, which Localization is on record?
The Localization was “+++ (+++ indicates >80% nuclear)”.

With B2 as the molecule, how does the Localization read?
The Localization was “+++ (+++ indicates >80% nuclear)”.

Which Localization does the source give for B3 here?
The Localization was “++ (++ indicates 60-79% nuclear)”.

With B4 as the molecule, how does the Localization read?
The Localization was “++ (++ indicates 60-79% nuclear)”.

Which Localization does the source give for B5 here?
Its Localization is “++ (++ indicates 60-79% nuclear)”.

With B6 as the molecule, how does the Localization read?
Its Localization is “++ (++ indicates 60-79% nuclear)”.

Which Localization does the source give for B7 here?
Its Localization is “++ (++ indicates 60-79% nuclear)”.

Which Localization does the source give for B8 here?
The Localization was “+ (+ indicates 40-59% nuclear)”.

Which Localization does the source give for B9 here?
Its Localization is “+++ (+++ indicates >80% nuclear)”.

With B10 as the molecule, how does the Localization read?
Its Localization is “++ (++ indicates 60-79% nuclear)”.

With B11 as the molecule, how does the Localization read?
Its Localization is “++ (++ indicates 60-79% nuclear)”.

Changes are numbered by the printed parent chain. Numbers in names are those of the source.
